# Laboratory results reported in publication PMC4537036.
# Protein sequences, listed by entry. Tags and fused reporters are not part of them. Lines headed by an entry give the natural chain unless they say otherwise; changes in a name come on top.
# UniProt O60711: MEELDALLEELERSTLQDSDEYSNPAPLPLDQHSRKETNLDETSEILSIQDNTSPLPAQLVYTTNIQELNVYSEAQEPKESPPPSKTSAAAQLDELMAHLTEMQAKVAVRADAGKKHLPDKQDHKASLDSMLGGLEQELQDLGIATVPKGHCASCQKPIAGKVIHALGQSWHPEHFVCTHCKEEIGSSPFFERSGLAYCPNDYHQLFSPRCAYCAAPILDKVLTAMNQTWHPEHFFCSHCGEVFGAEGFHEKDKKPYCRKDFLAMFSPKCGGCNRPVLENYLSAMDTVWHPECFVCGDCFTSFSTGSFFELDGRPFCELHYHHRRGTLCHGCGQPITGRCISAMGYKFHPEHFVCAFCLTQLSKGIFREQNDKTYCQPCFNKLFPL
# B1: EGFP-Caldesmon fusion protein (pEGFP-CALD1) (protein, UniProt Q05682-4 1-538)
# chain: MDDFERRRELRRQKREEMRLEAERIAYQRNDDDEEEAARERRRRARQERLRQKQEEESLGQVTDQVEVNAQNSVPDEEAKTTTTNTQVEGDDEAAFLERLARREERRQKRLQEALERQKEFDPTITDASLSLPSRRMQNDTAENETTEKEEKSESRQERYEIEETETVTKSYQKNDWRDAEENKKEDKEKEEEEEEKPKRGSIGENQIKDEKIKKDKEPKEEVKSFMDRKKGFTEVKSQNGEFMTHKLKHTENTFSRPGGRASVDTKEAEGAPQVEAGKRLEELRRRRGETESEEFEKLKQKQQEAALELEELKKKREERRKVLEEEEQRRKQEEADRKLREEEEKRRLKEEIERRRAEAAEKRQKMPEDGLSDDKKPFKCFTPKGSSLKIEERAEFLNKSVQKSSGVKSTHQAAIVSKIDSRLEQYTSAIEGTKSAKPTKPAASDLPVPAEGVRNIKSMWEKGNVFSSPTAAGTPNKETAGLKVGVSSRINEWLTKTPDGNKSPAPKPSDLRPGDVSSKRNLWEKQSVDKVTSPTKV
# What was measured:
# [1] = molecular target: GST-LPXN-LIM (the four LIM domains of leupaxin, aa 173-417) (human); test: pull-down; purified GST-LPXN fusion proteins on glutathione-Sepharose, incubated with protein lysate of PC-3 cells transfected with pEGFP-Caldesmon; blot with CaD-specific antibody; only the target purified
# [2] = molecular target: GST-LPXN-LD (the four LD motifs of leupaxin, aa 32-176) (human) (UniProt O60711); test: as above
binder,measurement,setting,value
B1,binding,[1],no binding
same,binding,[2],binds

# No constants are given. Whether binding was seen depends on the method and setting. Binding seen in cells or lysates may run through a third protein. For some assays here: A result given as binding can be weak or reduced; the word gives no strength. Sequences can lack the tags named with a protein.
